Measured values reported in PubChem BioAssay AID540256 (National Center for Advancing Translational Sciences (NCATS), 2011).
“And” between values parts separate entries of the source, which are not always exact repeats. Equal values may be shown once. Hit rate of the full screen: of about 300,000 compounds, about 3,700 (1.2%) were called active. The inconclusive results got no clear call from the source; some entries with a clear call stand among them for comparison. The call rests on the fitted dose curve; tested in HEK293 cells. A potency beside an inconclusive call is a rough fit, not a confirmed value.

Experiment: qHTS for Inhibitors of binding or entry into cells for Lassa Virus; further: nearly all actives have a fitted effect of over 50% in size
Details: Lassa virus pseudotype entry inhibition, cell reporter; activity change, negative = inhibition: at 37.9 µM (top of the series) unless noted
On the % scale 0 is the no-effect control and ±100 the full control effect; potency means the concentration at half of the fitted maximal effect.

With `C=CCN1C(c2ccc(Br)cc2)=CS/C1=C(/C#N)c1nnc(N2CCOCC2)n1-c1ccccc1` as the compound, how does the Potency read?
The Potency was inconclusive: 35.5 µM [inhibitor, single point].

For `NC(Cc1ccc(O)cc1)C(=O)NN=Cc1ccc(N(CCCl)CCCl)cc1` (stereo not drawn), which Potency is on record?
The Potency was active: 3.98 µM.

With `COc1ccc(NC(=O)NC23CC4(C)CC(C)(CC(C)(C4)C2)C3)cc1` as the compound, how does the Potency read?
The Potency was inconclusive: 1.26 µM [inhibitor, full curve].

Which “activity change, negative = inhibition” value does the source give for `O=C(COc1ccc(Br)cc1CO)Nc1ccccc1F` here?
Its value is inactive: 9.19%.

Which Potency does the source give for `O=C(O)CCN1C(=O)C2C3C=CC(C3)C2C1=O` (stereo not drawn) here?
The Potency was inconclusive: 0.0046 µM [activator, full curve, poor fit].

With `COc1ccc(-c2cc(C(F)(F)F)nc(S(=O)(=O)CCCC(=O)Nc3cc(C)on3)n2)cc1OC` as the compound, how does the Potency read?
Its Potency is inconclusive: 15.8 µM [inhibitor, single point].

With `CCOC(=O)c1ccc(NC(=O)c2cc(=O)c3ccc(C)c(C)c3o2)cc1` as the compound, how does the “activity change, negative = inhibition” value read?
The value was inactive: 15% [at 46.1 µM].

For `Cc1cc(C(C)(C)C)oc1C(=O)N(CC(=O)NC1CCCC1)Cc1ccccc1Cl`, which Potency is on record?
Its Potency is inconclusive: 29.1 µM [inhibitor, single point].

For `COCCN(Cc1ccc(C)c(Br)c1)S(=O)(=O)c1ccc2[nH]c(=O)ccc2c1`, which Potency is on record?
The Potency was inconclusive: 0.631 µM [inhibitor, full curve, poor fit].

With `CCOCCCNC(=O)Cn1ncc2c([nH]c3ccc(C)cc32)c1=O` as the compound, how does the Potency read?
Its Potency is inconclusive: 10 µM [activator, partial curve, poor fit].

For `Cc1ccc(C)c(N2CCN(C3(c4ccccc4)C(=O)c4ccccc4C3=O)CC2)c1`, which “activity change, negative = inhibition” value is on record?
The value was inactive: 7.78% [at 46.1 µM].

For `CC1(C)C(c2ccc(Cl)cc2)=[N+]([O-])C2(CCCC/C2=N\O)N1O` (stereo not drawn), which Potency is on record?
The Potency was inconclusive: 3.16 µM [inhibitor, partial curve, poor fit].

For `FC(F)(F)c1n[nH]c(=S)n1/N=C/c1ccco1`, which Potency is on record?
The Potency was inconclusive: 1.12 µM [activator, partial curve, poor fit].

For `COc1ccc(Oc2nnc(C)c3ccccc23)cc1`, which Potency is on record?
The Potency was inconclusive: 5.8 µM [activator, single point].

With `CN1CCN(c2ccc(NC(=O)c3ccc4ccccc4c3)cc2)CC1` as the compound, how does the Potency read?
Its Potency is inconclusive: 10 µM [inhibitor, partial curve, poor fit].

For `O=C1/C(=C\c2cccnc2)Sc2ccccc21`, which Potency is on record?
Its Potency is inconclusive: 14.1 µM [activator, single point].

For `S=c1[nH]nc(-c2ccc3ccccc3n2)n1-c1cc(Cl)cc(Cl)c1`, which “activity change, negative = inhibition” value is on record?
The value was inactive: -6.48%.

With `COc1ccc(NC(=S)N2CCC(c3ccc(C)cc3)C2)cc1` (stereo not drawn) as the compound, how does the “activity change, negative = inhibition” value read?
The value was inactive: 10.8% [at 46.1 µM].

With `O=C(C1CCCN(S(=O)(=O)c2ccc(F)cc2)C1)N1CCCCCC1` (stereo not drawn) as the compound, how does the “activity change, negative = inhibition” value read?
Its value is inactive: -13.8%.

Which Potency does the source give for `O=C(Cn1cc(/C=C\[N+](=O)[O-])c2ccccc21)Nc1ccccc1` here?
Its Potency is inconclusive: 17.8 µM [inhibitor, single point].

For `CNC(=S)N1N=C(c2ccc(C)cc2)CC1c1ccc(OC)cc1` (stereo not drawn), which Potency is on record?
Its Potency is inconclusive: 15.8 µM [inhibitor, single point].

With `Cc1nc(SCc2ccccc2)c2ccsc2n1` as the compound, how does the Potency read?
Its Potency is inconclusive: 12.6 µM [inhibitor, partial curve, poor fit].

For `CN(C(=O)Oc1ccc(Cl)c2cccnc12)c1ccccc1`, which Potency is on record?
Its Potency is inconclusive: 23.1 µM [inhibitor, single point].

With `CCn1c(C)nc2cc(C(=O)NNC(=O)CCC3CCCCC3)ccc21` as the compound, how does the Potency read?
Its Potency is inconclusive: 3.98 µM [inhibitor, partial curve, poor fit].

With `Cc1ccc(NC(=S)NNC(=S)Nc2ccc(C)cc2C)cc1` as the compound, how does the Potency read?
The Potency was inconclusive: 35.5 µM [inhibitor, partial curve, poor fit].

For `COc1cc2c(cc1OC)C(c1cc3cc4c(cc3[nH]c1=O)OCO4)N(C(=O)C(C)C)CC2` (stereo not drawn), which Potency is on record?
The Potency was inconclusive: 0.206 µM [inhibitor, full curve, poor fit].

Which Potency does the source give for `CCC(CC)NC(=O)CO/N=C/c1ccccc1OC(F)F` here?
Its Potency is inconclusive: 0.259 µM [inhibitor, single point].

For `CC(C)NC(=O)c1cc(C(=O)c2cc(Cl)ccc2O)coc1=N`, which Potency is on record?
The Potency was inconclusive: 0.231 µM [inhibitor, single point].

With `CC(C)Cn1cnc2c(SCc3ccc(Cl)cc3)nc(N)nc21` as the compound, how does the Potency read?
Its Potency is inconclusive: 0.708 µM [activator, single point].

For `Cn1nc(-c2ccccc2)c(-c2ccccc2)c(C(=O)Nc2ccccc2C(N)=O)c1=O`, which “activity change, negative = inhibition” value is on record?
Its value is inactive: 16.4% [at 46.1 µM].

Which Potency does the source give for `Cn1c(N2CCOCC2)nc(-c2ccccc2)c1-c1ccccc1` here?
Its Potency is inconclusive: 7.3 µM [inhibitor, partial curve].

With `Nc1nnc(SCc2ccccc2Cl)s1` as the compound, how does the Potency read?
Its Potency is inconclusive: 14.1 µM [activator, single point].

Which Potency does the source give for `CCOc1ccc(/C=C/c2nc(C#N)c(NCc3ccc(OC)cc3)o2)cc1` here?
The Potency was inconclusive: 1.41 µM [inhibitor, full curve, poor fit].

For `CC(NC(=O)c1ccccc1F)c1nnc(SCC(=O)Nc2nccs2)n1C` (stereo not drawn), which “activity change, negative = inhibition” value is on record?
The value was inactive: 1.45%.

For `C[C@H]1[C@H](c2ccccc2)Oc2ccc(Cl)cc2S(=O)(=O)N1CC1CCCN1C(=O)OC(C)(C)C` (stereo partly drawn), which Potency is on record?
Its Potency is inconclusive: 15.8 µM [inhibitor, partial curve, poor fit].

With `Cn1c(SCc2cccc([N+](=O)[O-])c2)nc2c(c1=O)SCC2` as the compound, how does the Potency read?
Its Potency is inconclusive: 31.6 µM [inhibitor, single point].

With `CCCNC(=O)c1nnsc1S(=O)(=O)c1ccc(Cl)cc1` as the compound, how does the Potency read?
Its Potency is active: 2.82 µM.

Which “activity change, negative = inhibition” value does the source give for `COc1ccc(Nc2nc(N)c([N+](=O)[O-])c(NCCO)n2)cc1` here?
The value was inactive: -13.4%.

Which Potency does the source give for `O=C(c1ccco1)N1CCc2[nH]nc(-c3ccc(Cl)cc3)c2C1` here?
Its Potency is inconclusive: 12.6 µM [inhibitor, partial curve, poor fit].

With `Cn1ccnc1SCc1cn2cc(Br)ccc2n1` as the compound, how does the Potency read?
Its Potency is inconclusive: 10 µM [inhibitor, partial curve, poor fit].

For `O=c1cc2c(n[nH]1)CCCC2`, which Potency is on record?
Its Potency is inconclusive: 35.5 µM [activator, partial curve, poor fit].

For `COC(=O)[C@H](Cc1ccccc1)NC(=O)N1CCC(C)CC1`, which “activity change, negative = inhibition” value is on record?
Its value is inactive: 4.75%.

Which Potency does the source give for `COC(=O)c1cccc(NC(=S)N2CCN(c3ccccc3F)CC2)c1` here?
The Potency was inconclusive: 3.16 µM [inhibitor, single point].

With `Cn1nc(C(F)(F)F)cc1C(=O)Nc1ccc(Cl)cc1` as the compound, how does the Potency read?
Its Potency is inconclusive: 35.5 µM [inhibitor, single point].

With `Cc1ccccc1NC(=O)c1ccc2c(c1)CCN2S(C)(=O)=O` as the compound, how does the Potency read?
The Potency was inconclusive: 15.8 µM [inhibitor, single point].

Which Potency does the source give for `Cc1occc1C(=O)Nc1nnc(-c2ccncc2)s1` here?
The Potency was inconclusive: 16.4 µM [activator, partial curve].

Which Potency does the source give for `O=C(c1cccc(S(=O)(=O)N2CCCC2)c1)c1cccc(S(=O)(=O)N2CCCC2)c1` here?
The Potency was inconclusive: 17.8 µM [inhibitor, single point].

For `Cc1cc(C)cc(C(=O)Nc2ccc(N3CCN(C(=O)c4ccco4)CC3)cc2)c1`, which Potency is on record?
Its Potency is inconclusive: 35.5 µM [inhibitor, single point].

Which Potency does the source give for `O=C(Oc1ccc(N(Cc2cccs2)C2=NS(=O)(=O)c3ccccc32)cc1)c1ccccc1` here?
Its Potency is inconclusive: 4.61 µM [inhibitor, full curve, poor fit].

Which Potency does the source give for `C=CCOC(=O)C1=C(C)NC(SC)=C(C#N)C1c1ccc(OCC)cc1` (stereo not drawn) here?
The Potency was “inactive and inconclusive: 35.5 µM [inhibitor, single point]”.

Which “activity change, negative = inhibition” value does the source give for `O=C(Cc1ccc(F)cc1)N1CCN=C1SCc1ccc([N+](=O)[O-])cc1` here?
The value was inactive: -16.7%.

With `COc1cccc(CN2CC=C(c3ccc(F)cc3)CC2)c1` as the compound, how does the “activity change, negative = inhibition” value read?
Its value is inactive: -1.8%.

For `COc1cccc(-c2ccc(CN3C(C(C)C)C(=O)N(Cc4cn(CCC5OCCO5)nn4)CCS3(=O)=O)cc2)c1OC` (stereo not drawn), which Potency is on record?
Its Potency is inconclusive: 0.995 µM [activator, full curve, poor fit].

For `CCOC(=O)c1nc(S(C)(=O)=O)ncc1N1CCOCC1`, which “activity change, negative = inhibition” value is on record?
Its value is inactive: -23.6%.

With `CC(CN1CCOCC1)OC(=O)Cc1ccc(Cl)cc1` (stereo not drawn) as the compound, how does the “activity change, negative = inhibition” value read?
Its value is inactive: -12.3%.

For `CCCN(CCC)CCNC(=O)c1cc2c(=O)oc3ccc(C)cc3c2s1`, which “activity change, negative = inhibition” value is on record?
Its value is inactive: 6.58% [at 46.1 µM].

Which Potency does the source give for `COc1ccc(NC(=O)c2cc(C3CC3)nc3c2c(C)nn3-c2ccccc2)c(OC)c1` here?
The Potency was inconclusive: 31.6 µM [activator, single point].

For `CCOC(=O)C1(Cc2ccccc2)CCCN(CCCn2cccn2)C1` (stereo not drawn), which Potency is on record?
The Potency was inconclusive: 0.562 µM [activator, single point].

Which Potency does the source give for `CC(C)Cc1nn2c(=O)cc(COC(=O)c3cccc(NC(=O)c4ccccc4)c3)nc2s1` here?
The Potency was inconclusive: 12.6 µM [activator, single point].

With `Cn1c(CCN2CCN(c3ccccc3)CC2)nc2cc(NC(=O)c3ccco3)ccc21` as the compound, how does the Potency read?
The Potency was inconclusive: 2.24 µM [activator, partial curve, poor fit].

Which Potency does the source give for `CN1CCN(C(c2ccc(Cl)cc2)c2cc(Cl)c3cccnc3c2O)CC1` (stereo not drawn) here?
Its Potency is active: 10 µM.

With `Clc1ccc(CN=C2Nc3ccccc3CS2)cc1` as the compound, how does the Potency read?
Its Potency is inconclusive: 7.3 µM [activator, partial curve].

Which Potency does the source give for `O=[N+]([O-])c1c(NCCCO)cc(Sc2ccc(Cl)cc2)c2nonc12` here?
The Potency was inconclusive: 22.4 µM [inhibitor, single point].

For `CNC(=S)SCCOc1ccccc1`, which “activity change, negative = inhibition” value is on record?
The value was inactive: 6.8% [at 46.1 µM].

With `CCOC(=O)N1CCN(CC(O)COCc2cc(OC)c(OC)c(OC)c2)CC1` (stereo not drawn) as the compound, how does the “activity change, negative = inhibition” value read?
The value was inactive: -0.902%.

Which Potency does the source give for `N#CC(=C1CCCC1)c1nc(-c2cc3ccccc3oc2=O)cs1` here?
Its Potency is inconclusive: 0.326 µM [activator, full curve].

For `Cc1cc(C)nc(NC(=S)NC(=O)c2ccccc2)n1`, which “activity change, negative = inhibition” value is on record?
The value was inactive: 21.3%.

With `CC(=O)Nc1ccc(NS(=O)(=O)c2ccc3c(c2)n(C)c(=O)n3C)cc1` as the compound, how does the Potency read?
The Potency was inconclusive: 15.8 µM [inhibitor, single point].
